Experimental data taken from patent publication US20110118134A1, “Biomarkers for insulin sensitizer drug response” (IKFE GmbH, priority 2008, published 2011).
For at least one compound, name, drawing or mass did not settle the structure.

Legend:
[1] = system: patients with type 2 diabetes; conditions: 30 mg, after 4 weeks, 20 patients with type 2 diabetes; cited from earlier work
[2] = system: patients with type 2 diabetes mellitus; assay: Double-blind placebo-controlled study: clinical and biochemical observation parameters at baseline and after 4 weeks; format: in vivo, human
[3] = system: NFκB and NFκB-modulated cytokines in circulating peripheral mononuclear cells; assay: mRNA expression of NFκB and NFκB-modulated cytokines in circulating mononuclear cells (calibrator-normalized real-time PCR); format: in vivo, human; conditions: 4 weeks additional pioglitazone therapy, relative to proinflammatory markers
healthy subjects = conditions: three-week treatment, cited from earlier work
NF-κB = conditions: non-diabetic obese patients; cited from earlier work
[4] = 4 weeks, p<0.001 vs. placebo at endpoint

CCc1ccc(CCOc2ccc(CC3SC(=O)NC3=O)cc2)nc1 (stereo not drawn) [pioglitazone]
Endothelial function in conduit arteries [1]: amelioration of endothelial function
Change from baseline to endpoint in HbA1c ([2]; 4 weeks): no significant change
Change in HOMAIR score [2, 4]: decrease
Change in adiponectin values [2, 4]: increase
Change in intact proinsulin concentrations [2, 4]: decrease
Change in fasting glucose during the observation period ([2]; four weeks, FIG. 2): slight but non-significant decrease
Change in hsCRP during the observation period ([2]; four weeks, FIG. 2, not seen in the placebo group): fast and significant decrease
Change in MMP-9 during the observation period ([2]; plasma, four weeks, FIG. 2, not seen in the placebo group): fast and significant decrease
Expression of the inhibitory markers (mRNA) [3]: changed inversely

CN(CCOc1ccc(CC2SC(=O)NC2=O)cc1)c1ccccn1 (stereo not drawn) [rosiglitazone]
Flow-mediated, endothelium-dependent vasodilatation (healthy subjects; starting within the first day): increased
Blood glucose or lipid levels (healthy subjects): did not change

Cc1c(C)c2c(c(C)c1O)CCC(C)(COc1ccc(CC3SC(=O)NC3=O)cc1)O2 (stereo not drawn) [troglitazone]
Effect on NF-κB activity and IκB (NF-κB): suppress NF-κB activity and stimulate IκB
